{"source": "PubChem BioAssay AID540256", "about": "(National Center for Advancing Translational Sciences (NCATS), 2011)", "note": "Several values for one entry are separate records, joined by “and”; a condition that tells them apart may be missing. Equal values may be shown once. Screen size: about 300,000 compounds; about 3,700 (1.2%) were called active. This list was built around the results that the source calls inconclusive (neither active nor inactive); the mix of calls is not that of the screen. Calls come from the whole dose curve; tested in HEK293 cells. A potency beside an inconclusive call is a rough fit, not a confirmed value. Potency is the fitted concentration of half-maximal effect."}
{"test": "qHTS for Inhibitors of binding or entry into cells for Lassa Virus; note: nearly all actives have a fitted effect of over 50% in size", "conditions": "Lassa virus pseudotype entry inhibition, cell reporter; series mostly up to 37.9 µM"}
{"smiles": "COc1ccc(NC(=O)C(CCSC)NC(N)=O)cc1Cl", "note": "(configuration not stated)", "Potency": "inconclusive: 20 µM [activator, single point]"}
{"smiles": "Oc1ccccc1-c1cc(-c2ccccc2)no1", "Potency": "inconclusive: 35.5 µM [inhibitor, single point]"}
{"smiles": "Cc1ccc(C(=O)NCC(=O)N2CCCN(S(=O)(=O)c3ccc(C)cc3)CC2)cc1", "Potency": "inactive"}
{"smiles": "COc1ccc(CCNC(=O)CSC2=NS(=O)(=O)c3ccccc3N2)cc1OC", "Potency": "inconclusive: 0.891 µM [inhibitor, single point]"}
{"smiles": "O=C(c1ccccc1)N1CCN(Cc2c[nH]c3ccccc23)CC1", "Potency": "inconclusive: 12.6 µM [inhibitor, partial curve]"}
{"smiles": "N#CC(C#N)=C1C(=O)N(CCN2CCOCC2)c2ccccc21", "Potency": "inactive"}
{"smiles": "Cc1ccccc1-c1nnc(-c2cccc3ccccc23)o1", "Potency": "inactive"}
{"smiles": "CCn1c2ccccc2c2cc(NC(=O)c3cccc([N+](=O)[O-])c3C)ccc21", "Potency": "inactive"}
{"smiles": "CCc1cccc(NC(=O)Cc2ccc(OC)c(OC)c2)c1", "Potency": "inconclusive: 9.2 µM [inhibitor, partial curve, poor fit]"}
{"smiles": "CC1=CC(C)C2(COC(=O)Nc3ccccc3)COC(C)C1C2C", "note": "(configuration not stated)", "Potency": "inconclusive: 28.2 µM [inhibitor, single point]"}
{"smiles": "Cc1ccc(C(=O)N/N=C(/CC(=O)c2cccs2)C(F)(F)F)cc1", "Potency": "inconclusive: 22.4 µM [inhibitor, single point]"}
{"smiles": "C[C@@H]1[C@@H](c2ccccc2)c2cc3ccccc3nc2-c2nc3ccccc3cc2[C@H]1C(=O)N1CCCC1", "Potency": "inconclusive: 0.596 µM [activator, partial curve, poor fit]"}
{"smiles": "O=P(c1ccccc1)(c1ccccc1)C(O)c1ccco1", "note": "(configuration not stated)", "Potency": "inconclusive: 0.58 µM [activator, partial curve, poor fit]"}
{"smiles": "O=C(Cn1cnc2nc3c(cc2c1=O)CCCC3)Nc1ccc(F)cc1Cl", "Potency": "inactive"}
{"smiles": "Cc1ccc(S(=O)(=O)NCC(=O)OCC(=O)N2N=C(c3ccc(Cl)cc3)CC2c2ccco2)cc1C", "note": "(configuration not stated)", "Potency": "inconclusive: 17.8 µM [inhibitor, single point]"}
{"smiles": "CC(SCc1ccccc1)C(=O)Nc1ccccc1Br", "note": "(configuration not stated)", "Potency": "inconclusive: 35.5 µM [activator, single point]"}
{"smiles": "N[C@H](C(=O)O)[C@H]1C[C@@H]1C(=O)O", "Potency": "inconclusive: 0.259 µM [activator, full curve, poor fit]"}
{"smiles": "O=C(Nc1ccc(S(=O)(=O)N2CCCCC2)cc1)c1ccc(CN2CCc3ccccc3C2)cc1", "Potency": "inconclusive: 0.501 µM [inhibitor, full curve, poor fit]"}
{"smiles": "O=C(N/N=C/c1ccc([N+](=O)[O-])o1)C1CC1", "Potency": "inconclusive: 29.1 µM [inhibitor, single point]"}
{"smiles": "CCOC(=O)c1sc2nc(CSc3ccccc3)nc(NCCN(C)C)c2c1C", "Potency": "inconclusive: 35.5 µM [inhibitor, single point]"}
{"smiles": "CCOc1ccc(CCNC(=O)c2ccc(-n3c(C)cc4c3CCCC4)cc2)cc1OCC", "Potency": "inconclusive: 15.8 µM [inhibitor, single point]"}
{"smiles": "CC(C)OC(=O)c1ccc(NC(=O)C2C3CC4OC(=O)C2C4C3)cc1", "note": "(configuration not stated)", "Potency": "inconclusive: 12.6 µM [activator, partial curve, poor fit]"}
{"smiles": "CCCc1nnc(-c2cc(OC)c(OC)c(OC)c2)o1", "Potency": "inactive"}
{"smiles": "CCOC(=O)C1CCN(C(=O)CN(c2ccc3c(c2)OCCO3)S(C)(=O)=O)CC1", "Potency": "inactive"}
{"smiles": "Cc1ccc(NN2C(=O)C=C(c3ccccc3)C2=O)cc1", "Potency": "inconclusive: 35.5 µM [inhibitor, single point]"}
{"smiles": "CCc1ccccc1NC(=S)N1CCN(c2ccccn2)CC1", "Potency": "inconclusive: 5.62 µM [activator, single point]"}
{"smiles": "O=C(CC1Sc2ncnn2C1=O)Nc1ccccc1", "note": "(configuration not stated)", "Potency": "inactive"}
{"smiles": "O=C(Nc1ccccc1-c1ccccc1NC(=O)c1ccco1)c1ccco1", "Potency": "inactive"}
{"smiles": "O=C(Nc1ccc2ccccc2c1)c1cccc([N+](=O)[O-])c1", "Potency": "inconclusive: 35.5 µM [inhibitor, partial curve, poor fit]"}
{"smiles": "C=CCn1c(SCC(=O)NC(=O)c2cccn2C)nc2ccccc2c1=O", "Potency": "inactive"}
{"smiles": "CCCc1ccc(OCc2ccc(C(=O)N3CCSCC3)o2)cc1", "Potency": "inconclusive: 35.5 µM [inhibitor, single point]"}
{"smiles": "CCn1c(CN2CCN(c3cccc(C)c3C)CC2)n[nH]c1=S", "Potency": "inconclusive: 11.6 µM [inhibitor, partial curve, poor fit]"}
{"smiles": "Cc1occc1C(=O)N/N=C/c1c(O)ccc2ccccc12", "Potency": "inconclusive: 14.1 µM [inhibitor, partial curve, poor fit]"}
{"smiles": "CCn1c(SCC(=O)Nc2nc(-c3ccccc3)cs2)nnc1-c1ccccc1O", "Potency": "inconclusive: 25.1 µM [inhibitor, single point]"}
{"smiles": "Cc1cccc(N2CCN(C(=O)c3ccc4c(c3)OCCO4)CC2)c1C", "Potency": "inconclusive: 22.4 µM [inhibitor, single point]"}
{"smiles": "O=S(=O)(c1ccc2nc(-c3ccccc3)[nH]c2c1)N1CCN(c2ccc(Cl)cc2)CC1", "Potency": "inconclusive: 8.2 µM [inhibitor, partial curve] and inconclusive: 35.5 µM [inhibitor, single point]"}
{"smiles": "Cc1ccc(C(=O)N/N=C2\\CCSC2)cc1[N+](=O)[O-]", "Potency": "inconclusive: 14.1 µM [activator, partial curve, poor fit]"}
{"smiles": "CCOc1ncccc1C(=O)NCCc1ccc(OC)cc1", "Potency": "inconclusive: 7.08 µM [inhibitor, full curve, poor fit]"}
{"smiles": "CC(=O)C1C(c2ccc(F)cc2)C2C(C)=NN=C2CC1(C)O", "note": "(configuration not stated)", "Potency": "inconclusive: 4.11 µM [inhibitor, single point]"}
{"smiles": "CC(C)(C)c1ccc(OCCCNC2CCCC2)cc1", "Potency": "inconclusive: 39.8 µM [inhibitor, partial curve, poor fit]"}
{"smiles": "COc1cnn(-c2ccc(C)cc2)c(=O)c1SCc1ccccc1", "Potency": "inconclusive: 4.47 µM [activator, partial curve, poor fit]"}
{"smiles": "O=C(CSc1nc2c([nH]c3ccccc32)c(=O)n1-c1cccc(Cl)c1)N1CCCC1", "Potency": "inactive"}
